Measured values taken from article doi:10.1101/107813.
No constants are given. Whether binding was seen depends on the method and setting. Binding seen in cells or lysates may run through a third protein. A result given as binding can be weak or reduced; the word gives no strength.

Biological target: sirtuin 3 (SIRT3) (human (endogenous in HepG2))
Test: co-IP

binding: binds
B1: mitochondrial manganese superoxide dismutase (SOD2) (enzyme, UniProt P04179 25-222)
chain: KHSLPDLPYDYGALEPHINAQIMQLHHSKHHAAYVNNLNVTEEKYQEALAKGDVTAQIALQPALKFNGGGHINHSIFWTNLSPNGGGEPKGELLEAIKRDFGSFDKFKEKLTAASVGVQGSGWGWLGFNKERGHLQIAACPNQDPLQGTTGLIPLLGIDVWEHAYYLQYKNVRPDYLKAIWNVINWENVTERYMACKK
